# In the supplement of paper PMC6411743:
# ± gives the standard deviation of the averaged measurements. This is a selection; strong and weak results do not stand in their true shares.
# Key:
# Assay in all cases: NP40-soluble protein abundance relative to vehicle (solubility fold change) (ratio); higher = more soluble protein in presence of AMP-PNP
# [1] = target: T1, A0A087X117|A0A0G2JN29|Q15155 (UniProt Q15155)
# T1 sequence (whole entry): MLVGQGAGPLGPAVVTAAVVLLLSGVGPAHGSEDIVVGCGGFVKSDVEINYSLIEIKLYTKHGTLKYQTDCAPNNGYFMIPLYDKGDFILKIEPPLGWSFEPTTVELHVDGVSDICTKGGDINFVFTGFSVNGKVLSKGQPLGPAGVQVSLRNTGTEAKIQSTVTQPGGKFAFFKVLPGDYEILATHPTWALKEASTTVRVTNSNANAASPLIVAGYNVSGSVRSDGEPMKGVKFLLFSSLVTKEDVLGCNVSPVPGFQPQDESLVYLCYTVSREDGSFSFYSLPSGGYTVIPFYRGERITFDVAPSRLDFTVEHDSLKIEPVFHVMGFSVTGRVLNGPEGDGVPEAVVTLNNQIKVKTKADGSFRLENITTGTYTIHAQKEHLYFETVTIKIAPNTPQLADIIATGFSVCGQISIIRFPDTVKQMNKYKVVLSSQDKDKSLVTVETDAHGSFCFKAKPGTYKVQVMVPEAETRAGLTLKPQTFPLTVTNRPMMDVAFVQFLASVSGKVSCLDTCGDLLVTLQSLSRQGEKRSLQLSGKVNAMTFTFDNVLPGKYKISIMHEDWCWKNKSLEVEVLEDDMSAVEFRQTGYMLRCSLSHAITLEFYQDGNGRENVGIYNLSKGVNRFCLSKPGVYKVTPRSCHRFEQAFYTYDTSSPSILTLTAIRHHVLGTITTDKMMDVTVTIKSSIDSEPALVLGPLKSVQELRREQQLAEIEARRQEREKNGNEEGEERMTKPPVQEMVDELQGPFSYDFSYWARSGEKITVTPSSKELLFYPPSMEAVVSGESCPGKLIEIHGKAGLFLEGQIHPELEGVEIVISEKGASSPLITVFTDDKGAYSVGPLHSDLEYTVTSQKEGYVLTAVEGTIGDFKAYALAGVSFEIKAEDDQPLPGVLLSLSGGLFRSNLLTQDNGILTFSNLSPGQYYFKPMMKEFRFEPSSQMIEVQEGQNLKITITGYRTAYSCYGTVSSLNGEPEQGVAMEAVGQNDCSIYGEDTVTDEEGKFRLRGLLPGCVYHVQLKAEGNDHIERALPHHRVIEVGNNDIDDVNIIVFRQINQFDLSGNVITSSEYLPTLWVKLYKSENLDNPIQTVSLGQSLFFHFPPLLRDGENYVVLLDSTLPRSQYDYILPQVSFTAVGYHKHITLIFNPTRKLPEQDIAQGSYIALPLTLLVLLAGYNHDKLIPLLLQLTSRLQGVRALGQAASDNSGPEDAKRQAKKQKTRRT
# Outline: (§1)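 Eight concentrations, 0.1 to 10 mM, were tested on Jurkat crude lysate for 10 min at room temperature and then 3 min at 37 °C, in three independent experiments. The lysate was solubilised with 0.8% NP40 and benzonase, ultracentrifuged, and the supernatant TMT-labelled for LC-MS/MS. Each value is the fold change against the detergent-processed vehicle in its own replicate, from vsn-normalised intensities.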
# [2] = target: T2, A0A087X142|A6NFQ9 and related entries (UniProt Q92599)
# T2 sequence (whole entry): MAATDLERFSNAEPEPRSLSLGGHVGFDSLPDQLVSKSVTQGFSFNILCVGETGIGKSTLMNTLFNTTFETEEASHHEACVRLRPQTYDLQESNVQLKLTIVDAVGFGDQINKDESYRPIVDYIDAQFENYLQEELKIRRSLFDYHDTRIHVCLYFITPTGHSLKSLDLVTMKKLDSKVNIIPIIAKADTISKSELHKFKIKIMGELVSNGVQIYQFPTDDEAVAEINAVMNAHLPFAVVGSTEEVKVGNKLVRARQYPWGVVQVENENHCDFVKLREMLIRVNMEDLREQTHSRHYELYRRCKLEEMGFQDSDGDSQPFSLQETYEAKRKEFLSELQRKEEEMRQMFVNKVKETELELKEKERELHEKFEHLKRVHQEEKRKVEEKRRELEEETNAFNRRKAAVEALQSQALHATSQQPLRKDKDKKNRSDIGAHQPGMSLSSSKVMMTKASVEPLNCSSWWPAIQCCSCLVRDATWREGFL
# Outline: as §1
# [3] = target: T3, A0A087X1S7|P09326 (UniProt P09326)
# T3 sequence (whole entry): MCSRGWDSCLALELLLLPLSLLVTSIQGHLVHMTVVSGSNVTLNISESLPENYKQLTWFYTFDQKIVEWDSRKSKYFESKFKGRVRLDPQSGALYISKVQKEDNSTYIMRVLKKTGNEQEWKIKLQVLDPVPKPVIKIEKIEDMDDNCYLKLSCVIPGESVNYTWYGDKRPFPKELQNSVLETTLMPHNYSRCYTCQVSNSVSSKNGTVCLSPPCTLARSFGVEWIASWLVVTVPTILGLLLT
# Outline: as §1
# [4] = target: T4, A0A088AWN8|Q9UHQ1 and related entries (UniProt Q9UHQ1)
# T4 sequence (whole entry): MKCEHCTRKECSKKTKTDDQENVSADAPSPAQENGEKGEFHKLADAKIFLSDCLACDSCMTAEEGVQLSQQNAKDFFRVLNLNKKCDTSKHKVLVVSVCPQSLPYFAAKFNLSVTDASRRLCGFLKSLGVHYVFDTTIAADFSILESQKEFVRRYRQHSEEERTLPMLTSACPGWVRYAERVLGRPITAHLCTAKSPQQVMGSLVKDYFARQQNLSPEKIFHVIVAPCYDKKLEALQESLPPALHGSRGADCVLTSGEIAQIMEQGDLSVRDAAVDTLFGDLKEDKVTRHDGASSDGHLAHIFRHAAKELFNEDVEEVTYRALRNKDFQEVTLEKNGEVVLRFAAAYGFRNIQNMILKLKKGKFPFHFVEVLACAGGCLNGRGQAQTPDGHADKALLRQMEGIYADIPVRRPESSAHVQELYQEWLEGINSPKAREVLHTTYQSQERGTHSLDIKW
# Outline: as §1
# [5] = target: T5, A0A0A0MSG2|J3KNW4 and related entries (UniProt Q14192)
# T5 sequence (whole entry): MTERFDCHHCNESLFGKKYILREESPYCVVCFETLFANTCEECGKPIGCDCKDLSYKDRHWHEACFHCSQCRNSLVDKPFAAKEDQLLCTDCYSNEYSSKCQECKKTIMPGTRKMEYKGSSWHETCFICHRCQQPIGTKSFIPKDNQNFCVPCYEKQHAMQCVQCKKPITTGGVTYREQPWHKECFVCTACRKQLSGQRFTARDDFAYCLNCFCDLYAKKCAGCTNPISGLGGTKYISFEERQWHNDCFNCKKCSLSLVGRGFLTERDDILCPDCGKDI
# Outline: as §1
structure (smiles),measurement,setting,value
Nc1ncnc2c1ncn2[C@@H]1O[C@H](COP(=O)(O)OP(=O)(O)NP(=O)(O)O)[C@@H](O)[C@H]1O [adenylyl imidodiphosphate],NP40-soluble protein abundance,[1]; concentration: 6mM,1.01 ± 0.02
same,NP40-soluble protein abundance,[1]; concentration: 8mM,1.01 ± 0.015
same,NP40-soluble protein abundance,[1]; concentration: 10mM,1.002 ± 0.0044
same,NP40-soluble protein abundance,[2]; concentration: 1mM,0.984 ± 0.021
same,NP40-soluble protein abundance,[2]; concentration: 2mM,0.959 ± 0.062
same,NP40-soluble protein abundance,[2]; concentration: 4mM,0.978 ± 0.074
same,NP40-soluble protein abundance,[2]; concentration: 6mM,0.966 ± 0.021
same,NP40-soluble protein abundance,[2]; concentration: 8mM,0.949 ± 0.034
same,NP40-soluble protein abundance,[2]; concentration: 10mM,0.941 ± 0.044
same,NP40-soluble protein abundance,[3]; concentration: 1mM,1.01 ± 0.032
same,NP40-soluble protein abundance,[3]; concentration: 2mM,1.09 ± 0.14
same,NP40-soluble protein abundance,[3]; concentration: 4mM,1.04 ± 0.03
same,NP40-soluble protein abundance,[3]; concentration: 6mM,1.04 ± 0.07
same,NP40-soluble protein abundance,[3]; concentration: 8mM,1.03 ± 0.037
same,NP40-soluble protein abundance,[3]; concentration: 10mM,1.06 ± 0.083
same,NP40-soluble protein abundance,[4]; concentration: 1mM,0.991 ± 0.025
same,NP40-soluble protein abundance,[4]; concentration: 2mM,0.993 ± 0.063
same,NP40-soluble protein abundance,[4]; concentration: 4mM,0.975 ± 0.062
same,NP40-soluble protein abundance,[4]; concentration: 6mM,1.01 ± 0.073
same,NP40-soluble protein abundance,[4]; concentration: 8mM,1 ± 0.1
same,NP40-soluble protein abundance,[4]; concentration: 10mM,0.987 ± 0.097
same,NP40-soluble protein abundance,[5]; concentration: 1mM,0.991 ± 0.05
same,NP40-soluble protein abundance,[5]; concentration: 2mM,0.988 ± 0.09
same,NP40-soluble protein abundance,[5]; concentration: 4mM,1.02 ± 0.048
same,NP40-soluble protein abundance,[5]; concentration: 6mM,0.966 ± 0.036
same,NP40-soluble protein abundance,[5]; concentration: 8mM,0.979 ± 0.083
same,NP40-soluble protein abundance,[5]; concentration: 10mM,0.947 ± 0.035

# Pulled one by one from above:
structure (smiles),measurement,setting,value
Nc1ncnc2c1ncn2[C@@H]1O[C@H](COP(=O)(O)OP(=O)(O)NP(=O)(O)O)[C@@H](O)[C@H]1O [adenylyl imidodiphosphate],NP40-soluble protein abundance,[3]; concentration: 4mM,1.04 ± 0.03
same,NP40-soluble protein abundance,[3]; concentration: 6mM,1.04 ± 0.07
